Results are given in words; binding and its absence hold for the method and conditions named.

For the experiment, the target named is human Hv1 transmembrane domain (Hv1-TM) (human) (UniProt Q96D96). The experiment can be described thus: SEC.

B1: human Hv1 transmembrane domain (Hv1-TM) (domain or fragment, UniProt Q96D96 97-223)
chain: SSHRFQVIIICLVVLDALLVLAELILDLKIIQPDKNNYAAMVFHYMSITILVFFMMEIIFKLFVFRLEFFHHKFEILDAVVVVVSFILDIVLLFQEHQFEALGLLILLRLWRVARIINGIIISVKTR
On to B1, for which the binding result is listed as “no binding”.

For the origin of these results see doi:10.1101/2023.10.27.564100.
